# Test results from paper PMC3441911.
# These are yes or no findings as the source states them, for the method shown. In cells and extracts the contact can be indirect. Some entries that bind do so weakly or less than the wild type.
# Biological target: NaV 1.4 sodium channel α subunit (rat (endogenous in gastrocnemius muscle)) (UniProt P15390)
# Experiment: co-IP; pan-NaV 1.x antibody on protein G dynabeads; gastrocnemius muscle membranes of control and CIM (denervated, dexamethasone 7 days) rats solubilized in 20 mM KPO4 pH 6.5, 180 mM KCl, 1 mM EGTA, 0.5 mM MgCl2, 1% NP40; overnight, 0-4°C; five washes; western blots; IP with blocking peptide as negative control; six separate immunoprecipitations
substance,measurement,value
neuronal nitric oxide synthase (from UniProt P29476 1-1429) (enzyme),binding,binds
